What is called AC50 is the midpoint of the concentration-response curve, whichever way the signal moves.

These results are taken from PubChem BioAssay AID2685 (National Center for Advancing Translational Sciences (NCATS), 2010).

The nature of the assay: qHTS Assay for Lipid Storage Modulators in Drosophila S3 Cells.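 On cell number change: cells counted by Cell Tracker Red CMTPX staining in the red channel.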 Conditions: BODIPY lipid droplet fluorescence, 18-24 h; for cell number change: measured here: cell count max response, cells fed with added oleic acid. In a few lines: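 Drosophila S3 cells loaded with oleic acid (400 uM, as added) and compounds at several concentrations; lipid droplets imaged by 488-nm laser-scanning cytometry, 500–530 nm intensity and object ratio to cell channel. Percent activity normalized to 20 uM Triacsin C.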
Background: qHTS replaces the single test concentration by a dilution series.

[1] abbreviates: measured here: cell number channel AC50, cells fed with added oleic acid.
Where [2] appears, read: measured here: lipid fluorescence (Fed channel) AC50, cells fed with added oleic acid.

This is one part of the list. Shown are side measurements of this screen, not its main read-out; they come without a call. The list favours compounds with an active or inconclusive main result. The note in brackets gives the kind of curve behind each potency; many fits are weak.

As for `O=C(c1ccc(S(=O)(=O)Nc2ccccc2)cc1)N1CCCC(C(F)(F)F)C1` (stereo unspecified), the cell number change is 4.91%. Besides, the AC50 under setting [1] was 0.259 µM [rising, partial curve, poor fit]. Take `O=C(CSCc1ccc([N+](=O)[O-])cc1)Nc1ccccc1C(=O)O`: the cell number change is -43.4%. The concentration at half-maximal activity (AC50) under setting [1] is 29.1 µM [falling, single point]. As to `COC(=O)CN1C(=O)COc2ccc(S(=O)(=O)N3CCOCC3)cc21`, the cell number change worked out at 3.77%. Further, the AC50 under setting [2] was 6.51 µM [falling, single point]. As to `COc1ccccc1-c1cc(C(=O)N/N=C/c2ccc(C)o2)c2ccccc2n1`, the cell number change was -22.9%. For the same compound, the AC50 under setting [2] was 29.1 µM [rising, partial curve, poor fit]. Regarding `Cc1cc(-c2ccc(C)c(S(=O)(=O)NCc3ccc(Br)cc3)c2)on1`, the cell number change is -12%. Also, the AC50 under setting [2] was 23.1 µM [falling, single point]. For `O=C(C1CC(=O)N(c2ccc3c(c2)OCCO3)C1)N1CCCC(C(F)(F)F)C1` (stereo unspecified), the cell number change was determined as 31%. Besides, the AC50 under setting [1] was 18.4 µM [rising, single point]. `O=C1C2C(C(=O)N1CC1CCCO1)C1C=CC2C12CC2` (stereo unspecified): the cell number change was -40.4%. The AC50 under setting [1] was 0.231 µM [falling, full curve]. Under setting [2], the AC50 was 0.231 µM [falling, full curve, poor fit]. As for `CCOc1ccc(NC(=O)CN2C(=O)COc3ccc(S(=O)(=O)N4CCCC4)cc32)cc1`, the cell number change was 0.38%. Besides, the AC50 under setting [1] was 2.31 µM [rising, partial curve]. Further, under setting [2], the AC50 is 2.31 µM [rising, partial curve, poor fit]. For the compound `CSc1nsc(SCC(=O)Nc2ccc(F)cc2)n1`, the cell number change was -16.2%. Consider `c1ccc(COc2ccc(Oc3nc(N4CCCCC4)nc(N4CCOCC4)n3)nn2)cc1`, for which the cell number change was -31%. Under setting [1], the AC50 was 29.1 µM [falling, single point].

As for `Cc1cccc(Nc2nc(N)c([N+](=O)[O-])c(N3CC(C)OC(C)C3)n2)c1` (stereo unspecified), the cell number change was -36.9%. Moreover, under setting [1], the AC50 is 16.4 µM [falling, single point]. Under setting [2], the AC50 was 1.84 µM [falling, partial curve, poor fit]. With `COc1ccc(C(=O)Nc2n[nH]c(-c3ccncc3)n2)cc1`, the cell number change turned out to be 1.38%. As for `COCCNC(=O)C(=O)c1cc(C)n(-c2ccc([N+](=O)[O-])cc2)c1C`, the AC50 under setting [2] is 0.58 µM [falling, single point]. With `O=C(c1ccc(COc2ccccc2Cl)o1)N1N=C(C(F)F)CC1(O)C(F)F` (stereo unspecified), the cell number change was -75.8%. Besides, the AC50 under setting [1] is 13 µM [falling, partial curve]. In addition, under setting [2], the AC50 was 9.2 µM [falling, partial curve]. For the compound `O=C(CNCc1ccc(Cl)cc1)Nc1ccc(C(=O)N2CCCCCC2)cc1`, the cell number change came out at 15.1%. Besides, the AC50 under setting [2] was 0.231 µM [rising, partial curve, poor fit]. Turning to `CCn1c2ccccc2c2cc(NC(=O)COC(=O)c3ccc(O)cc3)ccc21`, the AC50 under setting [2] was 1.84 µM [rising, partial curve, poor fit]. As to `CC(C)C(=O)NNC(=O)CSc1nnnn1C(C)C`, the cell number change is -0.155%. In addition, the AC50 under setting [2] is 1.84 µM [falling, partial curve]. On to `O=C(/C=C/c1ccc2c(c1)OCO2)NCc1ccco1`, for which the AC50 under setting [2] is 0.366 µM [rising, full curve].

Regarding `COc1cc(C2CC(c3cccs3)=NN2C(=O)CCl)ccc1OC(F)F` (stereo unspecified), the AC50 under setting [2] was 6.51 µM [falling, single point]. For `O=C(CSc1n[nH]c(-c2ccccc2)n1)N1CCOCC1`, the cell number change was 13.5%. Moreover, the AC50 under setting [2] was 11.6 µM [falling, single point]. In the case of `CCCCN1/C(=C/c2cccc[n+]2C)Sc2cc(NC(C)=O)ccc21`, the AC50 under setting [2] was 0.58 µM [falling, single point].

As for `NC(=O)SCC(=O)Nc1ccc(Cl)c(Cl)c1`, the cell number change stood at 36.2%. In addition, the AC50 under setting [1] was 20.6 µM [rising, single point]. The AC50 under setting [2] is 29.1 µM [rising, single point].

Take `Cc1ccc2c(c1)c(C)cc(=O)n2CCC(=O)O`: the cell number change was found to be 0.225%. In addition, the AC50 under setting [2] was 0.146 µM [rising, full curve, poor fit].

Take `CCCN(C(=O)COC(=O)CSc1ccc(C(N)=O)cc1[N+](=O)[O-])C1CCS(=O)(=O)C1` (stereo unspecified): under setting [1], the AC50 was 0.082 µM [falling, full curve, poor fit].

For `O=C(Nc1nc2c(s1)CCCC2)c1cc(-c2ccc3c(c2)OCO3)nc2ccccc12`, the AC50 under setting [2] is 29.1 µM [rising, single point]. Regarding `CCCCOc1ccc(/C(O)=C(\C#N)c2nc3ccccc3[nH]2)cc1`, the cell number change stood at 32.7%. Further, the AC50 under setting [1] was 32.6 µM [rising, partial curve, poor fit]. As to `COCCNC(=O)C(NC(=O)C1CCC(C)CC1)C(C)C` (stereo unspecified), the cell number change was -44%. For the same compound, the AC50 under setting [2] is 29.1 µM [falling, single point]. As to `Cc1cc(/C=C2\C(=N)N3N=C(CC(=O)N4CCOCC4)SC3=NC2=O)c(C)n1-c1ccccc1`, the cell number change was 29.5%. For the same compound, the AC50 under setting [1] is 0.326 µM [rising, full curve]. Also, the AC50 under setting [2] was 1.16 µM [rising, full curve]. With `Clc1ccc2c(NNc3ccccc3Cl)ccnc2c1`, the cell number change was -3.22%. Also, the AC50 under setting [2] is 0.731 µM [falling, partial curve, poor fit].

On to `O=C(Nc1cccc(S(=O)(=O)N2CCCCC2)c1)c1cnccn1`, for which the cell number change stood at 27.9%. For the same compound, under setting [1], the AC50 was 4.11 µM [rising, full curve, poor fit]. Turning to `O=C1c2oc3ccc(Cl)cc3c(=O)c2C(c2cccc(Br)c2)N1CCO` (stereo unspecified), the cell number change was determined as 43%. Moreover, the AC50 under setting [1] was 23.1 µM [rising, single point]. For the same compound, under setting [2], the AC50 was 16.4 µM [rising, partial curve].

For `O=C(c1cccc([N+](=O)[O-])c1)N1CCCC(C(=O)N2CCN(c3ccccc3)CC2)C1` (stereo unspecified), the cell number change is -9.12%.

For the compound `O=C1CC(NNc2ccccc2)C(=O)N1c1ccccc1` (stereo unspecified), the cell number change is -2.66%. In the case of `CC(=O)N1c2ccc(S(=O)(=O)N3CCC(C(=O)NC4CCCCC4)CC3)cc2CC1C` (stereo unspecified), the AC50 under setting [2] was 29.1 µM [rising, single point]. Take `Clc1ccc(-c2cn(-c3ccccc3)c3[n+]2CCS3)cc1`: the cell number change turned out to be 6.26%. Further, under setting [2], the AC50 was 0.103 µM [falling, full curve, poor fit]. In the case of `COc1ccc(Cl)cc1NC(=O)Nn1cnnc1`, the cell number change came to 55.1%. Further, the AC50 under setting [1] was 29.1 µM [rising, single point]. For the compound `O=C(CCC1CCCN(C(=O)c2ccoc2)C1)NCc1ccc(F)c(F)c1` (stereo unspecified), the cell number change was -16.7%. Moreover, the AC50 under setting [2] is 0.0058 µM [falling, full curve, poor fit].

Consider `NC(=O)c1ccccc1NC(=O)COc1ccc2c(c1)OCO2`, for which the cell number change amounted to 8.56%. Moreover, under setting [2], the AC50 was 11.6 µM [rising, single point].

Take `COc1ccccc1C(=O)C1CCCN(C(=O)c2cccc(Cn3cccn3)c2)C1` (stereo unspecified): the cell number change was -21.7%. Also, under setting [2], the AC50 was 0.00651 µM [falling, full curve, poor fit]. Turning to `CN(C)S(=O)(=O)c1cccc(-c2nn(-c3ccccc3)cc2/C=C2\SC(=S)NC2=O)c1`, the cell number change was -22.1%. Moreover, the AC50 under setting [2] is 29.1 µM [falling, single point]. For the compound `O=C(Cn1cnc2ccccc2c1=O)c1ccc2ccccc2c1`, the cell number change was 57%. The AC50 under setting [1] was 20.6 µM [rising, partial curve, poor fit]. In addition, the AC50 under setting [2] was 11.6 µM [rising, partial curve]. In the case of `NS(=O)(=O)c1cccc(NC(=O)c2cccc(Oc3ccccc3)c2)c1`, the cell number change was determined as 34.3%. Under setting [1], the AC50 is 1.64 µM [rising, full curve]. Further, under setting [2], the AC50 is 6.51 µM [falling, single point].

As for `CC(C(=O)Nc1ccc(C(=O)O)c(O)c1)N1C(=O)/C(=C\c2ccco2)SC1=S` (stereo unspecified), the cell number change is -17%. The AC50 under setting [2] is 6.51 µM [falling, single point].

Consider `CN(CC(=O)Nc1cccc(F)c1)C(=O)c1sccc1-c1ccccc1`, for which the cell number change is -75%. Further, the AC50 under setting [1] was 1.3 µM [falling, partial curve].

In the case of `O=C(Nc1ccccc1C(F)(F)F)N1CCN(c2ccc3nnc(-c4ccc(F)cc4)n3n2)CC1`, the cell number change is -37.5%. The AC50 under setting [1] is 23.1 µM [falling, partial curve]. Also, the AC50 under setting [2] was 0.651 µM [rising, partial curve]. As to `CC(=O)NCCSc1ccc(S(=O)(=O)N2CCCC2)cn1`, the cell number change was determined as 17.2%. In addition, the AC50 under setting [2] was 0.13 µM [rising, full curve, poor fit]. In the case of `Cc1cc(N=Nc2ccc(C)c(N=Nc3cc(C)c(N)cc3N)c2)c(N)cc1N`, the cell number change was found to be 12.9%. The AC50 under setting [2] was 0.0164 µM [rising, full curve, poor fit]. On to `CCOc1ccc(NC(=O)C2CC(=O)N(C(C)C)C2)cc1` (stereo unspecified), for which the cell number change is -184%. Besides, the AC50 under setting [1] was 23.1 µM [falling, partial curve].

`CCn1c(CCCOc2ccc(Cl)cc2Cl)nnc1SCC(=O)Nc1cc(F)ccc1C`: the cell number change is -27.8%. Moreover, the half-maximal activity concentration (AC50) under setting [2] was 29.1 µM [falling, single point]. With `CC(=O)NCCc1nc2cc(NS(=O)(=O)c3ccc(Cl)cc3)ccc2n1C`, under setting [1], the AC50 was 0.0517 µM [falling, full curve, poor fit]. For the compound `CN1CC=C2C(C#N)=C(N)C(C#N)(C#N)C(CCc3ccccc3)C2C1` (stereo unspecified), the cell number change is 90.8%. For the same compound, the AC50 under setting [1] was 29.1 µM [rising, single point]. For the same compound, under setting [2], the AC50 was 29.1 µM [rising, single point]. As to `CCOC(=O)N1CCN(C(=O)CCSCCc2ccncc2)CC1`, the cell number change is -28.8%. In addition, the AC50 under setting [2] was 29.1 µM [falling, single point]. Turning to `O=C(CC(=O)NC1CCCCC1)N/N=C/c1ccc(Cl)cc1`, the cell number change was -21.1%. Further, under setting [2], the AC50 is 0.13 µM [falling, full curve, poor fit]. In the case of `O=C(COC(=O)C1C2CC3OC(=O)C1C3C2)Nc1ccc(Cl)cc1` (stereo unspecified), the cell number change is 22.6%. For the compound `CC(C)CCNc1nc(-c2ccco2)c2c(c1C#N)CCCC2`, the cell number change came out at 67.6%. The AC50 under setting [2] was 6.51 µM [falling, single point].

As for `COC(=O)c1ccccc1N/C=C1\CCc2c(c(C)nn2-c2ccccn2)C1=O`, the cell number change was found to be 131%. Further, the AC50 under setting [2] was 0.146 µM [rising, partial curve, poor fit]. For the compound `COc1ccc(C)cc1NC(=O)C1CCN(S(=O)(=O)c2c(C)noc2C)CC1`, the cell number change was -60.7%. The AC50 under setting [1] is 9.2 µM [falling, partial curve].
